Measured values as given in paper PMC3616908.
No constants are given. Whether binding was seen depends on the method and setting. For some assays here: In cells and extracts the contact can be indirect. Some binding calls cover weakened binding; strength is not graded here. Tags and fused reporters may be left off the sequences shown.

T1: Chk1 (yeast two-hybrid fusion) (S. cerevisiae) (UniProt P38147)
T1 sequence: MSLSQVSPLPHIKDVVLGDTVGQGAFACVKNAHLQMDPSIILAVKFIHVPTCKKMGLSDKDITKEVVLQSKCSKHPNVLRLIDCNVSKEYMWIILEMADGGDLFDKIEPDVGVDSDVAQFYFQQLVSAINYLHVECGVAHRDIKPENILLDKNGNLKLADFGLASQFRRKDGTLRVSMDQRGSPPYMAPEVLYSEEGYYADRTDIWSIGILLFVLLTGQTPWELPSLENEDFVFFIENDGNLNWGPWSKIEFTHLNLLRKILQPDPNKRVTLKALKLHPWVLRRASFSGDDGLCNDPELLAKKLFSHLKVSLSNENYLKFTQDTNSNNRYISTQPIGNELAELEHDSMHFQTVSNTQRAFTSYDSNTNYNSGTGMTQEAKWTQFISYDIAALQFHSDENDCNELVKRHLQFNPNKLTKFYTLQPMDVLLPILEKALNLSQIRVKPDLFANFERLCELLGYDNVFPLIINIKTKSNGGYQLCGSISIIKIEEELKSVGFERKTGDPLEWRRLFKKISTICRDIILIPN

T2: Rad9-9MYC (S. cerevisiae) (UniProt P14737)
T2 sequence: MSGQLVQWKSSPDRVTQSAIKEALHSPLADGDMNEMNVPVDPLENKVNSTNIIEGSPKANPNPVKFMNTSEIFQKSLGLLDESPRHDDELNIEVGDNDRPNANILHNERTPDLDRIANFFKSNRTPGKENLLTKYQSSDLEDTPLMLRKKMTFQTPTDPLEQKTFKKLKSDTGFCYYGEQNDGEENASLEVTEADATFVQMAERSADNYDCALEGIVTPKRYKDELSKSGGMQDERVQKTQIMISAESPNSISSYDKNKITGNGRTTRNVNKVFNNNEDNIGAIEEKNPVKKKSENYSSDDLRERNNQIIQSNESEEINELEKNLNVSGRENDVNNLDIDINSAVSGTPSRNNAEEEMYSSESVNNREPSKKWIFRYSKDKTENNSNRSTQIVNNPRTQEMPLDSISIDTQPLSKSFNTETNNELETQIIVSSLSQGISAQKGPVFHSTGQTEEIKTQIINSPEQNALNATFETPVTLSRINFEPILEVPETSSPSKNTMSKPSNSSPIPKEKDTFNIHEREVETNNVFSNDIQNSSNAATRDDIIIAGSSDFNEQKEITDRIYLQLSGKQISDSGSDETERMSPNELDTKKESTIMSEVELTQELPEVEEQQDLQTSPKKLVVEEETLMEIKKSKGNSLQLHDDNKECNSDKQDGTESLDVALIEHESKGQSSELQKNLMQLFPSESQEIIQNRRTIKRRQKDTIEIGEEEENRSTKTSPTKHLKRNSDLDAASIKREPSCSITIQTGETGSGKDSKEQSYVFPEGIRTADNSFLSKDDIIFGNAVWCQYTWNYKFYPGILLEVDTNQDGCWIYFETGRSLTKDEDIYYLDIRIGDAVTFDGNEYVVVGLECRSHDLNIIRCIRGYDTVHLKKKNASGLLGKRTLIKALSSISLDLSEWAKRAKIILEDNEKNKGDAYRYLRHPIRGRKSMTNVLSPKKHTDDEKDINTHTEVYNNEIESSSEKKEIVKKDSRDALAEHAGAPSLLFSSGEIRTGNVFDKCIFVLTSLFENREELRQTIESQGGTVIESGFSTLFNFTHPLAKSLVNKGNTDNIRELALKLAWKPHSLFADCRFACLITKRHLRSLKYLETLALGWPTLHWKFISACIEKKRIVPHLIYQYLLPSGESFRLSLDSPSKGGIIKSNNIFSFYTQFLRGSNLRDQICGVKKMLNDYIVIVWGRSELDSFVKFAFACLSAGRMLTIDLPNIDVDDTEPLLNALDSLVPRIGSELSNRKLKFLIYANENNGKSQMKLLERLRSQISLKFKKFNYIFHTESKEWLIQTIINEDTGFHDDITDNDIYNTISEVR

T3: Dpb11-13MYC (S. cerevisiae) (UniProt P47027)
T3 sequence: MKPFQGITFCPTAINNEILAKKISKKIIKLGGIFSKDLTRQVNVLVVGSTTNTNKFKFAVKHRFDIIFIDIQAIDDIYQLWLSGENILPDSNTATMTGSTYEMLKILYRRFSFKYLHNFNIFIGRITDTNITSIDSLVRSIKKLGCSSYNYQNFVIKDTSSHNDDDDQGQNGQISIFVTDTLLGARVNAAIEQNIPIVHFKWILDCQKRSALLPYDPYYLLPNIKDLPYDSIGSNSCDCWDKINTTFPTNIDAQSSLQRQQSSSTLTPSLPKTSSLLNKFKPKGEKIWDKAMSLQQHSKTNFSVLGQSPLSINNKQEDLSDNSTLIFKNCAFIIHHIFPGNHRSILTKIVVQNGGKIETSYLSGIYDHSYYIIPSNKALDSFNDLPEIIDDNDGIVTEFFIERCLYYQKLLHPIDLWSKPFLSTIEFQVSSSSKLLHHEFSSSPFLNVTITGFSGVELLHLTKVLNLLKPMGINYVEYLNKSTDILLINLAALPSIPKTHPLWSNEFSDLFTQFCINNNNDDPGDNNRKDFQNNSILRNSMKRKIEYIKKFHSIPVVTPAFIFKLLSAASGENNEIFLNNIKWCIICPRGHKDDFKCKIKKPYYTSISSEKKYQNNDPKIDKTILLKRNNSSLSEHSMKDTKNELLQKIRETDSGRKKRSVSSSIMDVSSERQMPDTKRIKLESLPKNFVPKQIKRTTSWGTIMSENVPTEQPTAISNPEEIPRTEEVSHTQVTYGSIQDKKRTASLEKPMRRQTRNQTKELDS


Experiments:
[1] = molecular target: T1, Chk1 (yeast two-hybrid fusion) (S. cerevisiae); test: two-hybrid; Matchmaker Gold Y2H cells arrested in G2/M and in G1; alpha-galactosidase activity measured by the PNP assay (Figure S5A)
[2] = molecular target: T1, Chk1 (yeast two-hybrid fusion) (S. cerevisiae); test: two-hybrid; Clontech Matchmaker Gold system; interaction read by white colony colour, resistance to Aureobasidin A and blue colour on X-alpha-gal (Figure 5A, six clones each); read-out of Figures 6A and S6C-E not told
[3] = molecular target: T2, Rad9-9MYC (S. cerevisiae); test: co-IP; anti-MYC IP of Rad9-9MYC from extract of nocodazole-arrested cells expressing Rad9-9MYC and Chk1-3FLAG, 20 ug/ml bleocin for 45 min; IgG mock control; western blot
[4] = molecular target: T2, Rad9-9MYC (S. cerevisiae); test: co-IP; Rad9-9MYC immunoprecipitated (anti-MYC) from bleocin-treated nocodazole-arrested cells; beads washed and incubated with ATP, ATP-gammaS or no nucleotide; beads and elution blotted
[5] = molecular target: T3, Dpb11-13MYC (S. cerevisiae); test: co-IP; anti-FLAG (Chk1-3FLAG) or anti-MYC (Dpb11-13MYC) IP from 1 ml clarified crude extract (10 mg/ml) of nocodazole-arrested wild type or rad9^CDK1-9A cells, mock or 20 ug/ml bleocin for 45 min; IgG mock IP as control; western blot

Binder	binding [1]	binding [2]	binding [3]	binding [4]	binding [5]
full length Rad9 (yeast two-hybrid fusion) (protein, UniProt P14737 1-1309) MSGQLVQWKSSPDRVTQSAIKEALHSPLADGDMNEMNVPVDPLENKVNSTNIIEGSPKANPNPVKFMNTSEIFQKSLGLLDESPRHDDELNIEVGDNDRPNANILHNERTPDLDRIANFFKSNRTPGKENLLTKYQSSDLEDTPLMLRKKMTFQTPTDPLEQKTFKKLKSDTGFCYYGEQNDGEENASLEVTEADATFVQMAERSADNYDCALEGIVTPKRYKDELSKSGGMQDERVQKTQIMISAESPNSISSYDKNKITGNGRTTRNVNKVFNNNEDNIGAIEEKNPVKKKSENYSSDDLRERNNQIIQSNESEEINELEKNLNVSGRENDVNNLDIDINSAVSGTPSRNNAEEEMYSSESVNNREPSKKWIFRYSKDKTENNSNRSTQIVNNPRTQEMPLDSISIDTQPLSKSFNTETNNELETQIIVSSLSQGISAQKGPVFHSTGQTEEIKTQIINSPEQNALNATFETPVTLSRINFEPILEVPETSSPSKNTMSKPSNSSPIPKEKDTFNIHEREVETNNVFSNDIQNSSNAATRDDIIIAGSSDFNEQKEITDRIYLQLSGKQISDSGSDETERMSPNELDTKKESTIMSEVELTQELPEVEEQQDLQTSPKKLVVEEETLMEIKKSKGNSLQLHDDNKECNSDKQDGTESLDVALIEHESKGQSSELQKNLMQLFPSESQEIIQNRRTIKRRQKDTIEIGEEEENRSTKTSPTKHLKRNSDLDAASIKREPSCSITIQTGETGSGKDSKEQSYVFPEGIRTADNSFLSKDDIIFGNAVWCQYTWNYKFYPGILLEVDTNQDGCWIYFETGRSLTKDEDIYYLDIRIGDAVTFDGNEYVVVGLECRSHDLNIIRCIRGYDTVHLKKKNASGLLGKRTLIKALSSISLDLSEWAKRAKIILEDNEKNKGDAYRYLRHPIRGRKSMTNVLSPKKHTDDEKDINTHTEVYNNEIESSSEKKEIVKKDSRDALAEHAGAPSLLFSSGEIRTGNVFDKCIFVLTSLFENREELRQTIESQGGTVIESGFSTLFNFTHPLAKSLVNKGNTDNIRELALKLAWKPHSLFADCRFACLITKRHLRSLKYLETLALGWPTLHWKFISACIEKKRIVPHLIYQYLLPSGESFRLSLDSPSKGGIIKSNNIFSFYTQFLRGSNLRDQICGVKKMLNDYIVIVWGRSELDSFVKFAFACLSAGRMLTIDLPNIDVDDTEPLLNALDSLVPRIGSELSNRKLKFLIYANENNGKSQMKLLERLRSQISLKFKKFNYIFHTESKEWLIQTIINEDTGFHDDITDNDIYNTISEVR	binds	binds	–	–	–
Chk1-3FLAG (protein, UniProt P38147 1-527) MSLSQVSPLPHIKDVVLGDTVGQGAFACVKNAHLQMDPSIILAVKFIHVPTCKKMGLSDKDITKEVVLQSKCSKHPNVLRLIDCNVSKEYMWIILEMADGGDLFDKIEPDVGVDSDVAQFYFQQLVSAINYLHVECGVAHRDIKPENILLDKNGNLKLADFGLASQFRRKDGTLRVSMDQRGSPPYMAPEVLYSEEGYYADRTDIWSIGILLFVLLTGQTPWELPSLENEDFVFFIENDGNLNWGPWSKIEFTHLNLLRKILQPDPNKRVTLKALKLHPWVLRRASFSGDDGLCNDPELLAKKLFSHLKVSLSNENYLKFTQDTNSNNRYISTQPIGNELAELEHDSMHFQTVSNTQRAFTSYDSNTNYNSGTGMTQEAKWTQFISYDIAALQFHSDENDCNELVKRHLQFNPNKLTKFYTLQPMDVLLPILEKALNLSQIRVKPDLFANFERLCELLGYDNVFPLIINIKTKSNGGYQLCGSISIIKIEEELKSVGFERKTGDPLEWRRLFKKISTICRDIILIPN	–	–	binds	binds	no binding
